Measured values: PubChem BioAssay AID504834 (National Center for Advancing Translational Sciences (NCATS), 2011)
About 22,000 (6.9%) of roughly 320,000 compounds were called active. The shares of active, inactive and inconclusive entries below differ from those in the screen. Calls come from the whole dose curve; as a rule, active = well fitted inhibition curve with a large enough effect; inconclusive = small, poorly fitted or top-dose-only effect, or another doubt; inactive = no such curve, though single readings can be large or run the other way. Potencies of inconclusive entries are doubtful fits and often do not repeat.

Test: Primary qHTS for delayed death inhibitors of the malarial parasite plastid, 96 hour incubation
Settings: P. falciparum luciferase reporter growth; series mostly up to 28.7 µM; activity change, negative = inhibition: at the top concentration
Outline: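 Infected RBCs, 2% Hct / 0.05% parasitemia final; luciferase-reporter P. falciparum; cpd 96 h, 37 C, 5% CO2; luciferase detection reagent; luminescence.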
% is set by controls: 0 for no effect and ±100 for the full control effect; potency is the fitted concentration of half-maximal effect.

SMILES	Potency	activity change, negative = inhibition
Cc1[nH]c2ccccc2c(=O)c1C(=O)/C=C/c1ccccc1	inconclusive: 2.94 µM [inhibitor, full curve]	–
Cc1nnc2c3ccccc3c(Cl)nn12	inconclusive: 1.85 µM [inhibitor, full curve, poor fit]	–
CC(C)C(=O)Nc1oc(-c2ccccc2)cc1C#N	active: 2.08 µM	–
COc1ccc(NC(=O)CC2C(=O)N(c3ccc(Cl)cc3)C(=S)N2CCc2ccncc2)cc1 (centres undefined)	active: 13.1 µM	–
Cc1[nH]c2ccccc2c1/C=C/c1nc2ccccc2c(=O)n1CCO	–	inactive: 10.7% [at 1.15 µM]
CN1CCCC(C#CC(O)(c2ccccc2)c2ccccc2)C1 (centres undefined)	–	inactive: 26.6%
Cc1ccc(NC(=O)c2cccc(OCc3c(C)noc3C)c2)c(C)c1	inconclusive: 9.28 µM [inhibitor, partial curve, poor fit]	–
CC(C)(C)C(O)C(Cc1ccccc1Cl)n1cncn1 (centres undefined)	inconclusive: 18.5 µM [inhibitor, single point]	–
Cc1ccc(CNCC(O)(c2ccccc2)c2ccccc2)cc1	inconclusive: 18.5 µM [inhibitor, single point]	–
CCCCOc1ccc(CN2CCC(O)CC2)cc1	–	inactive: 159%
O=[N+]([O-])c1ccc2nc(SCc3cn4cc(Cl)ccc4n3)[nH]c2c1	inconclusive: 18.5 µM [inhibitor, single point]	–
CN(/N=C/c1ccc(-c2ccc([N+](=O)[O-])cc2)o1)c1ccccc1	–	inactive: -8.17%
Cc1c(C)c2cc(Cl)c(OC(C)C(=O)NCCN3CCOCC3)cc2oc1=O (centres undefined)	inconclusive: 18.5 µM [inhibitor, single point]	–
Cc1ccsc1/C=N/Nc1nc2ccccc2[nH]1	inconclusive: 1.31 µM [inhibitor, full curve, poor fit]	–
Cc1ccccc1C(=O)OCn1nnc2ccccc2c1=O	active: 8.28 µM	–
COc1ccc(C(=O)C(Cc2ccccc2)N(C)C)cc1 (centres undefined)	active: 1.31 µM	–
Cc1cc(C)c2nc(/N=C(\N)NC(=O)Nc3ccccc3)nc(C)c2c1	active: 13.1 µM	–
CCOC(=O)N1CCN(C(=O)C2CCCN(c3nc4ccc(OCC)cc4s3)C2)CC1 (centres undefined)	–	inactive: -15%
CCOC(=O)c1sc(NN=C(C(=O)OC)C(=O)OC)c(C(=O)OCC)c1C	inconclusive: 10.4 µM [inhibitor, single point]	–
COCCCNC(=O)C(=O)Nc1ccc2c(c1)N(S(=O)(=O)c1cccs1)CCC2	inconclusive: 9.28 µM [inhibitor, single point]	–
Cc1ccc(OCc2cc(C(=O)N(C)Cc3cc(C4CC4)n[nH]3)no2)cc1C	–	inactive: -5.87%
CCOC1(NC(=O)c2ccccc2)C(C)=CC(=O)C=C1C	–	inactive: 5.96%
CC(O)CN(C)CC/C=C1/c2ccccc2CSc2ccccc21 (centres undefined)	inconclusive: 1.47 µM [inhibitor, partial curve, poor fit]	–
C=CCn1c(O)c(/C=C2\C=Nc3ccccc32)c(=O)[nH]c1=O	–	inactive: 4.48%
Cc1cc2c(C)nc3ccccc3c2o1	–	inactive: 3.45%

SMILES	Potency	activity change, negative = inhibition
CSc1ccc(C(c2c(C)[nH][nH]c2=O)c2c(C)[nH][nH]c2=O)cc1	inconclusive: 18.5 µM [inhibitor, single point]	–
CC(C)CN1CCC(=O)N(CCN=[N+]=[N-])CC1	inconclusive: 18.5 µM [inhibitor, single point]	–
O=C(c1ccc(F)c(S(=O)(=O)N2CCOCC2)c1)N1CCc2ccccc21	inconclusive: 9.28 µM [inhibitor, single point]	–
CN(C(=O)Cn1nnc(-c2ccc(F)cc2)n1)C1CCS(=O)(=O)C1 (centres undefined)	inconclusive: 7.38 µM [inhibitor, single point]	–
O=C1C=C(c2cc(C(F)(F)F)cc(C(F)(F)F)c2)C[C@@H](c2ccc3c(c2)OCO3)C1	inconclusive: 8.28 µM [inhibitor, partial curve]	–
Fc1ccc(CNC(=S)Nc2ccc(Cl)cc2)cc1	inconclusive: 0.738 µM [inhibitor, full curve, poor fit]	–
CC1CN(c2nc3ccccn3c(=O)c2C=O)CC(C)O1 (centres undefined)	active: 11.7 µM	–
O=C1CSC(c2cccc([N+](=O)[O-])c2)N1CCc1ccccc1 (centres undefined)	inconclusive: 0.0165 µM [inhibitor, full curve, poor fit]	–
O=C(N/N=C/c1cc(Br)cs1)c1c[nH]c2ccccc12	inconclusive: 0.0465 µM [inhibitor, full curve, poor fit]	–
O=C(N/N=C/c1c(O)n(Cc2ccc(F)cc2)c(=O)[nH]c1=O)c1ccccc1O	inconclusive: 13.1 µM [inhibitor, partial curve]	–
NC(N)=NC1=NC(=O)C(Cc2ccccc2)S1 (centres undefined)	inconclusive: 1.65 µM [inhibitor, partial curve, poor fit]	–
Clc1ccc(-n2nnnc2SCc2cn3ccccc3n2)cc1	inconclusive: 18.5 µM [inhibitor, single point]	–
Cc1ccccc1NC(=O)COC(=O)c1ccc(CSc2ccc(Cl)cc2)cc1	–	inactive: 44.6%
COc1ccc(/C=C/c2ccc3cccc(O)c3n2)c(OC)c1OC	–	inactive: -14.9%
O=C(NCc1ccccc1)C1=C[C@H](c2ccc(Br)cc2)C[C@H](OCc2ccc(CO)cc2)O1	active: 1.65 µM	–
O=C(CN1CCN(S(=O)(=O)c2ccc(F)cc2)CC1)NC1CC1	–	inactive: -1.38%
S=c1[nH]nc(C2CCCCC2)n1/N=C/c1cccs1	–	inactive: 11.2%
CCn1c(-c2cccc(S(=O)(=O)N3CCCC3)c2)n[nH]c1=S	inconclusive: 7.38 µM [inhibitor, partial curve, poor fit]	–
CCn1cc(C(=O)N2CCN(c3ccccn3)CC2)c2cc(OC)c(OC)cc2c1=O	inconclusive: 10.4 µM [inhibitor, single point]	–
O=C(CSc1nnc(CNC(=O)c2ccccc2F)o1)Nc1cccc(C(F)(F)F)c1	–	inactive: 46.8%
COC(=O)c1ccc(NC(=S)N2CCN(CCO)CC2)cc1	inconclusive: 11.7 µM [inhibitor, single point]	–
Cc1cc(/C=N/n2c(COc3ccccc3)nc3ccccc3c2=O)c(O)c([N+](=O)[O-])c1	–	inactive: 0%
c1ccc2c(c1)Oc1cccc3cccc-2c13	–	inactive: -2.86%
O=C(c1ccc2c(=O)n3c(nc2c1)CCCCC3)N1CCCCC1	–	inactive: -23%
CC[C@H](C)[C@H](NC(N)=O)C(=O)Nc1ccc2c(c1)OCO2	–	inactive: 17.4%

Laid out differently: entries from further up.
SMILES | Potency | activity change, negative = inhibition
C=CCn1c(O)c(/C=C2\C=Nc3ccccc32)c(=O)[nH]c1=O | – | inactive: 4.48%
Cc1cc2c(C)nc3ccccc3c2o1 | – | inactive: 3.45%
CSc1ccc(C(c2c(C)[nH][nH]c2=O)c2c(C)[nH][nH]c2=O)cc1 | inconclusive: 18.5 µM [inhibitor, single point] | –
CC(C)CN1CCC(=O)N(CCN=[N+]=[N-])CC1 | inconclusive: 18.5 µM [inhibitor, single point] | –

(next part)

SMILES	Potency	activity change, negative = inhibition
COc1cc2c(cc1OC)C(C1c3cc4c(cc3CCN1C)OCO4)OC2=O (centres undefined)	inconclusive: 10.4 µM [inhibitor, partial curve]	–
COc1cc2c3cc1Oc1cc(ccc1O)C[C@@H]1c4c(cc(OC)c(O)c4Oc4ccc(cc4)C[C@@H]3N(C)CC2)CC[N+]1(C)C	inconclusive: 5.36 µM [inhibitor, partial curve]	–
COc1cccc(C(=O)N2CCN(Cc3cccc(F)c3)CC2)c1	inconclusive: 14.7 µM [inhibitor, partial curve, poor fit]	–
CC1CCCCN1S(=O)(=O)c1ccc(S(=O)(=O)N2CCN(C)CC2)cc1 (centres undefined)	inconclusive: 7.38 µM [inhibitor, partial curve, poor fit]	–
O=C1c2ccncc2C(=O)N1CO	active: 10.4 µM	–
COc1ccc(CN2CCN(C(=O)c3cccc4ccccc34)CC2)cc1Br	inconclusive: 18.5 µM [inhibitor, single point]	–
NC(=O)Cc1ccc(Nc2nnc(-c3ccccc3)c3ccccc23)cc1	–	inactive: -21.9%
Cc1ccc(NC(=O)c2[nH]cnc2C(=O)NN)cc1	–	inactive: 6.33%
CC(=O)N1CCN(c2ccc([N+](=O)[O-])c(NCc3cccnc3)c2)CC1	inconclusive: 10.4 µM [inhibitor, partial curve, poor fit]	–
COc1ccc(N2CCN(C(=O)[C@@H](NC(=O)c3cc(OC)cc(OC)c3)C(C)C)CC2)cc1	inconclusive: 5.22 µM [inhibitor, partial curve, poor fit]	–
Cc1c(-c2cc(C(=O)O)no2)cnn1C	–	inactive: 30.3%
O=C(Nc1ccc2c(c1)OCO2)c1cc(C2CC2)on1	–	inactive: 1.28%
O=S(=O)(c1ccc(-c2ccon2)s1)N1CCN(c2ccncc2)CC1	–	inactive: 4.76%
COc1ccc(N(C(=O)c2snc(C(N)=O)c2N)C(C(=O)NC2CCCCC2)c2ccc(C)o2)c(OC)c1 (centres undefined)	–	inactive: 50.3%
C=CCC1(CC=C)CCCN1C(=O)c1cc(COc2cccc(C(F)(F)F)c2)on1	inconclusive: 18.5 µM [inhibitor, single point]	–
O=C(Cn1ncc2c(=O)oc3ccccc3c21)NCc1cccnc1	inconclusive: 14.7 µM [inhibitor, single point]	–
Cc1ccccc1N1C(=O)C2CCCN2C1=S (centres undefined)	inconclusive: 13.1 µM [inhibitor, single point]	–
CCCc1n[nH]c2c1/C(=N/O)CC(c1ccccc1)C2 (centres undefined)	inconclusive: 16.5 µM [inhibitor, single point]	–
Cc1ccc(NC(=S)NC(=O)c2ccc(Br)o2)c(C)c1	active: 13.1 µM	–
CCN(C(=O)COc1ccc(C(=O)c2ccccc2)cc1)c1ccccc1	active: 11.7 µM	–
Cc1ccc(NC(=O)CNc2ccc(Cl)c(Cl)c2)cc1S(=O)(=O)N(C)C	inconclusive: 18.5 µM [inhibitor, single point]	–
NC(=O)N=Nc1c2[nH]c3ccccc3nc-2c2ccccc12	inconclusive: 18.5 µM [inhibitor, partial curve, poor fit]	–
CNC(=O)c1ccc(NC(=O)c2cc(S(=O)(=O)N3CCOCC3)ccc2N2CCCC2)cc1	inconclusive: 10.4 µM [inhibitor, single point]	–
COc1ccc(CSc2nc(C)cc(C)c2S(C)(=O)=O)cc1	–	inactive: -0.29%
